The campaign covered roughly 330,000 compounds. About 610 (0.18%) were called active. Inconclusive means that the source gave no clear call. Such entries were picked first, then a sample of the others. Calls follow the shape of the full dose curve. Potencies of inconclusive entries are doubtful fits and often do not repeat.
experiment: qHTS of Yeast-based Assay for SARS-CoV PLP; also: nearly all actives have a fitted effect of over 55% in size; as to activity, positive = growth rescue: 0% is about no effect; conditions: S. cerevisiae expressing SARS-CoV PLpro; Potency: growth rescue; activity, positive = growth rescue: at 32.9 µM (top of the series)
Potency is read from the fitted curve at half-maximal effect.

| Compound | activity, positive = growth rescue | Potency |
| --- | --- | --- |
| O=C(Cc1ccccc1)Nc1nc2ccccc2s1 | inactive: -3.68% |  |
| O=C(NCC(c1ccc(F)cc1)N1CCOCC1)c1ccc(-c2ccccc2)cc1 (stereo not drawn) | inactive: 5.72% |  |
| COc1ccc(C(Nc2ccccc2)P(=O)(Oc2ccccc2)Oc2ccccc2)cc1 (stereo not drawn) |  | inconclusive: 22.4 µM [activator, partial curve] |
| COc1ccc(NC(=O)CN(C)C(=O)c2ccccc2CCc2ccccc2)cc1 | inactive: 1.81% |  |
| O=C(Nc1ccc2nc(-c3ccccc3)oc2c1)c1ccco1 | inactive: -9.11% |  |
| CCOc1ccccc1NC(=O)COC(=O)C(CC(C)C)N1C(=O)C2CC=CCC2C1=O (stereo not drawn) |  | inconclusive: 0.316 µM [activator, partial curve, poor fit] |
| CCOc1ccc(NC(=S)Nc2cccc3cnccc23)cc1 | inactive: -25.3% |  |
| COc1cccc(CNC(=S)NC2CCCC2)c1 |  | inconclusive: 5.62 µM [activator, partial curve] |
| CC1=C(C(=O)N2CCc3ccccc32)C2(CCC(C)CC2)OC1=O (stereo not drawn) |  | inconclusive: 3.98 µM [activator, single point] |
| CCOC(=O)c1cc(NC(=O)SCC(=O)O)c(C)nc1C |  | inconclusive: 20 µM [activator, single point] |
| CC(=O)N1[C@H](Cc2ccccc2)C=C[C@]1(C)C(=O)NCc1ccc(C)o1 |  | inconclusive: 10 µM [activator, partial curve] |
| CCC(=O)NC(c1ccccc1OC)c1ccc2cccnc2c1O (stereo not drawn) |  | inconclusive: 2 µM [activator, full curve, poor fit] |
| COc1ccc(CCNC(=O)COC(=O)Cc2ccccc2)cc1 |  | inconclusive: 2.82 µM [activator, full curve, poor fit] |
| CCCCn1c(SCC(=O)c2ccc(O)c(O)c2)nc2ccsc2c1=O |  | inconclusive: 20 µM [activator, single point] |
| O=C(Nc1cn(-c2ccccc2)nc1-c1ccc(Cl)cc1)c1ccccc1 |  | inconclusive: 6.31 µM [activator, partial curve] |
| Cc1cc(C)n(CC(=O)NNC(=O)CCCOc2ccc(Cl)c(C)c2)n1 |  | inconclusive: 2.51 µM [activator, full curve, poor fit] |
| CC(C)C(=O)NC(c1ccco1)c1ccc2cccnc2c1O (stereo not drawn) |  | inconclusive: 4.47 µM [activator, single point] |
| O=[N+]([O-])c1ccccc1N/N=C/c1ccccc1 | inactive: -2.81% |  |
| CCN(CC)c1ccc(/C=N/NC(=S)NCc2ccccc2)c(O)c1 |  | active: 10 µM |
| COc1ccc2c(c1)C(C)=CC(C)(C)N2C(=O)CN1C(=O)CCC1=O |  | inconclusive: 4.47 µM [activator, partial curve] |
| Cc1ccccc1/C=C1\SC(=S)N(/N=C/c2cc([N+](=O)[O-])ccc2O)C1=O |  | inconclusive: 20 µM [activator, single point] |
| COc1ccc(OC)c(Nc2nc(-c3ccccc3O)nc3ccccc23)c1 | inactive: -0.185% |  |
| O=C1Nc2ccc(NS(=O)(=O)c3cccs3)c3cccc1c23 | inactive: 5.18% |  |
| CCOC(=O)CNC(=O)/C=C/c1c(Cl)cccc1Cl |  | inconclusive: 10 µM [activator, single point] |

Gathered by group, the entries above containing four or more nitrogen atoms (2)

| Compound | activity, positive = growth rescue | Potency |
| --- | --- | --- |
| Cc1cc(C)n(CC(=O)NNC(=O)CCCOc2ccc(Cl)c(C)c2)n1 |  | inconclusive: 2.51 µM [activator, full curve, poor fit] |
| CCN(CC)c1ccc(/C=N/NC(=S)NCc2ccccc2)c(O)c1 |  | active: 10 µM |

(more compounds)

| Compound | activity, positive = growth rescue | Potency |
| --- | --- | --- |
| O=C(NC(=S)NNC(=O)c1ccco1)c1ccc(F)cc1 | inactive: -7.26% |  |
| O=C(O)c1cccc(Nc2ncnc3sccc23)c1 | inactive: 1.34% |  |
| Cc1ccc(OCC(=O)NCCS(=O)(=O)N2CCN(c3ccccc3)CC2)cc1 |  | inconclusive: 10 µM [activator, partial curve] |
| COC(=O)/C=C1\OC(c2ccccc2)=CC1=O | inactive: -95% |  |
| COc1ccc(C)cc1S(=O)(=O)Nc1cc(Cl)ccc1Cl |  | inconclusive: 10 µM [activator, partial curve] |
| C=CCNC(=O)CSc1cc([N+](=O)[O-])cc(S(=O)(=O)Cc2ccccc2)c1 |  | inconclusive: 8.91 µM [activator, single point] |
| CCCCn1c(C23CC4CC(CC(C4)C2)C3)n[nH]c1=S |  | inconclusive: 20 µM [activator, single point] |
| Cc1sc2nc(SCC(=O)N(C)c3ccccc3)n(C)c(=O)c2c1C | inactive: 5.01% |  |
| CC(C)N1C/C(=C/c2ccsc2)C(=O)/C(=C/c2ccsc2)C1 |  | active: 22.4 µM |
| CCCNC(=O)c1ccc2c(=O)c(O)c(-c3ccc(F)cc3)[nH]c2c1 |  | active: 12.6 µM |
| Cc1oc2c(CN3CCCCC3)c(O)ccc2c(=O)c1-c1ccc(Cl)cc1 | inactive: 1.55% |  |
| COCC(=O)N1CCC(Oc2ccc(C(=O)NC3Cc4ccccc4C3)cc2)CC1 |  | inconclusive: 0.355 µM [activator, full curve, poor fit] |
| CC(Cc1cccs1)NC(=O)Nc1ccc(Cl)c(Cl)c1 (stereo not drawn) | inactive: -46.1% |  |
| CCC(C)NC(=O)CCC(=O)Nc1ccc2nc(N3CCOCC3)cc(C)c2c1 (stereo not drawn) |  | inconclusive: 11.2 µM [activator, single point] |
| COc1cc(OC)cc(C(=O)OCCNC(=O)Cn2cnc3c2c(=O)n(C)c(=O)n3C)c1 | inactive: 0.828% |  |
| COc1ccc(-c2cc(C(=O)N3CCN(c4ncccn4)CC3)c3ccccc3n2)c(OC)c1 | inactive: -76.9% |  |
| CCOc1ccc2nc(N3CCC(C(=O)NC4CCCCC4)CC3)sc2c1 |  | inconclusive: 2 µM [activator, full curve] |
| Cc1ccc2c(c1)N(S(=O)(=O)c1ccc(F)cc1)C(C(C)(C)C)CO2 (stereo not drawn) |  | inconclusive: 4.47 µM [activator, single point] |
| c1ccc(-c2nc(NCC3CCCO3)c3ccccc3n2)nc1 (stereo not drawn) | inactive: -0.0182% |  |
| O=C(COc1ccccc1)N=C1SC2CS(=O)(=O)CC2N1Cc1ccccc1 (stereo not drawn) |  | inconclusive: 3.16 µM [activator, partial curve] |
| NC(=O)CN(c1ccc(Cl)cc1)S(=O)(=O)c1ccccc1 |  | inconclusive: 5.62 µM [activator, partial curve] |
| O=C(c1ccccc1)N1CCN(C(=O)N2CCOCC2)CC1 |  | inconclusive: 0.355 µM [activator, partial curve, poor fit] |
| O=C(CSc1nnc(Nc2ccccc2)s1)NN1C(=O)NC2(CCCCC2)C1=O | inactive: 7.54% |  |
| COc1c(C)cc(S(=O)(=O)NCc2ccccn2)c(C)c1C |  | inconclusive: 10 µM [activator, single point] |
